Values quoted from earlier work in US20130324521A1, “IMPLANT FOR TREATING OR PREVENTING AN ANEURYSM” (priority 2010, published 2013).
For at least one compound, name, drawing or mass did not settle the structure.

System: cardiovascular (arteriosclerotic) diseases
Conditions: animal experiments, oral (systemic) administration

## Cn1cncc1[C@@](N)(c1ccc(Cl)cc1)c1ccc2c(c1)c(-c1cccc(Cl)c1)cc(=O)n2C [R11577, Tipifarnib]
  effect on progression of cardiovascular diseases: prevention of the progression of cardiovascular diseases
